# Results published in paper PMC9545238.
# Chains of the proteins cited; added tags and fusions are not shown. Lines headed by an entry give the natural chain unless they say otherwise; changes in a name come on top.
# UniProt P0CV73: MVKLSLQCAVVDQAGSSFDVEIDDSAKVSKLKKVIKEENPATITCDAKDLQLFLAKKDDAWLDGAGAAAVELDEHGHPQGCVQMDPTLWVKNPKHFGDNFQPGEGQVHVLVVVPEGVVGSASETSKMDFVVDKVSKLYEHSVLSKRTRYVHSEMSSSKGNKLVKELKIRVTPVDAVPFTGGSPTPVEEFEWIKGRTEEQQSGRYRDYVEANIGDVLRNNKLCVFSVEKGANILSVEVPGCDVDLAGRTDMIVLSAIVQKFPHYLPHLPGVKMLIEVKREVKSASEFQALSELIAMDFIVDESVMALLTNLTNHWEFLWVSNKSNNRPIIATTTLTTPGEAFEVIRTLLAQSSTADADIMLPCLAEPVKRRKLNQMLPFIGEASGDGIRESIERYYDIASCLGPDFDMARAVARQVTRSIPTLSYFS
# Results are given in words; binding and its absence hold for the method and conditions named. Binding can be weak; no strength is given. For part of these data: Binding seen in cells or lysates may run through a third protein. For part of these data: Where a sequence is shown, tags or fusion partners need not be part of it.
# Legend:
# [1] = biological target: Myzus persicae effector Mp64, yeast two-hybrid bait (Myzus persicae); test: two-hybrid; independent co-transformation of effector bait with full-length SIZ1 prey in yeast, reporter assays
# [2] = biological target: GFP-Mp64 (Myzus persicae); test: co-IP; N-terminal GFP-tagged effectors and C-terminal 10xMyc-tagged SIZ1 co-expressed in N. benthamiana leaves (48 h); extract in GTEN buffer (10% glycerol, 25 mM Tris-HCl pH 7.5, 150 mM NaCl, 1 mM EDTA) with 0.1% NP-40 and 10 mM DTT; GFP-Trap-M magnetic beads; blots with GFP and cMyc antibodies
# [3] = biological target: GFP-CRN83_152 (Phytophthora capsici) (UniProt P0CV73); test: as above
Binder,binding [1],binding [2],binding [3]
"full-length AtSIZ1 (Arabidopsis thaliana SIZ1), yeast two-hybrid prey (protein, UniProt Q680Q4 1-884) MDLEANCKEKLSYFRIKELKDVLTQLGLSKQGKKQELVDRILTLLSDEQAARLLSKKNTVAKEAVAKLVDDTYRKMQVSGASDLASKGQVSSDTSNLKVKGEPEDPFQPEIKVRCVCGNSLETDSMIQCEDPRCHVWQHVGCVILPDKPMDGNPPLPESFYCEICRLTRADPFWVTVAHPLSPVRLTATTIPNDGASTMQSVERTFQITRADKDLLAKPEYDVQAWCMLLNDKVLFRMQWPQYADLQVNGVPVRAINRPGGQLLGVNGRDDGPIITSCIRDGVNRISLSGGDVRIFCFGVRLVKRRTLQQVLNLIPEEGKGETFEDALARVRRCIGGGGGDDNADSDSDIEVVADFFGVNLRCPMSGSRIKVAGRFLPCVHMGCFDLDVFVELNQRSRKWQCPICLKNYSVEHVIVDPYFNRITSKMKHCDEEVTEIEVKPDGSWRVKFKRESERRELGELSQWHAPDGSLCPSAVDIKRKMEMLPVKQEGYSDGPAPLKLGIRKNRNGIWEVSKPNTNGLSSSNRQEKVGYQEKNIIPMSSSATGSGRDGDDASVNQDAIGTFDFVANGMELDSISMNVDSGYNFPDRNQSGEGGNNEVIVLSDSDDENDLVITPGPAYSGCQTDGGLTFPLNPPGIINSYNEDPHSIAGGSSGLGLFNDDDEFDTPLWSFPSETPEAPGFQLFRSDADVSGGLVGLHHHSPLNCSPEINGGYTMAPETSMASVPVVPGSTGRSEANDGLVDNPLAFGRDDPSLQIFLPTKPDASAQSGFKNQADMSNGLRSEDWISLRLGDSASGNHGDPATTNGINSSHQMSTREGSMDTTTETASLLLGMNDSRQDKAKKQRSDNPFSFPRQKRSNNEQDHQTRHRSLNKICIILCAGKN",binds,,
"AtSIZ1-cMyc(10x) (protein, UniProt Q680Q4 1-884) MDLEANCKEKLSYFRIKELKDVLTQLGLSKQGKKQELVDRILTLLSDEQAARLLSKKNTVAKEAVAKLVDDTYRKMQVSGASDLASKGQVSSDTSNLKVKGEPEDPFQPEIKVRCVCGNSLETDSMIQCEDPRCHVWQHVGCVILPDKPMDGNPPLPESFYCEICRLTRADPFWVTVAHPLSPVRLTATTIPNDGASTMQSVERTFQITRADKDLLAKPEYDVQAWCMLLNDKVLFRMQWPQYADLQVNGVPVRAINRPGGQLLGVNGRDDGPIITSCIRDGVNRISLSGGDVRIFCFGVRLVKRRTLQQVLNLIPEEGKGETFEDALARVRRCIGGGGGDDNADSDSDIEVVADFFGVNLRCPMSGSRIKVAGRFLPCVHMGCFDLDVFVELNQRSRKWQCPICLKNYSVEHVIVDPYFNRITSKMKHCDEEVTEIEVKPDGSWRVKFKRESERRELGELSQWHAPDGSLCPSAVDIKRKMEMLPVKQEGYSDGPAPLKLGIRKNRNGIWEVSKPNTNGLSSSNRQEKVGYQEKNIIPMSSSATGSGRDGDDASVNQDAIGTFDFVANGMELDSISMNVDSGYNFPDRNQSGEGGNNEVIVLSDSDDENDLVITPGPAYSGCQTDGGLTFPLNPPGIINSYNEDPHSIAGGSSGLGLFNDDDEFDTPLWSFPSETPEAPGFQLFRSDADVSGGLVGLHHHSPLNCSPEINGGYTMAPETSMASVPVVPGSTGRSEANDGLVDNPLAFGRDDPSLQIFLPTKPDASAQSGFKNQADMSNGLRSEDWISLRLGDSASGNHGDPATTNGINSSHQMSTREGSMDTTTETASLLLGMNDSRQDKAKKQRSDNPFSFPRQKRSNNEQDHQTRHRSLNKICIILCAGKN",,binds,binds weakly
